Values of other authors as cited in patent EP1680106B1, “COMBINATION TREATMENT OF OBESITY INVOLVING 4,5-DIHYDRO-1H-PYRAZOLE DERIVATIVES HAVING CB1-ANTAGONISTIC ACTIVITY AND LIPASE INHIBITORS” (Solvay Pharmaceuticals GmbH, priority 2003, dated 2005).
Some results were stated once for a whole list of compounds, not compound by compound. At least one structure is not confirmed: it was looked up by name or label, or the drawing left a doubt.

System: plasma lipases
Conditions: relative to THL

SMILES: CCCCCCC[C@@H](C[C@@H]1OC(=O)[C@H]1CCCCCCCC(C)C)OC(=O)[C@H](C)NC=O [Panclicin A]
- potency on plasma lipases compared with THL (in words): same potency as THL
